From the supplement of paper PMC8728848
This is one part of the list.

Columns and labels:
Experiment in all cases: glycan array binding signal (z-score within array); higher = stronger binding
Details in all cases: glycan notation: IUPAC condensed, linker removed
[1] = target: Neu5Ac(a2-6)Gal(b1-4)GlcNAc(b1-2)Man(a1-6)[Man(a1-3)]Man(b1-4)GlcNAc(b1-4)GlcNAc
How it was run: (§1)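 The binding signal is a Z-score computed within each array and averaged over linkers. Arrays of the same protein sequence at different concentrations or buffers were also averaged together. Data originate from 3228 arrays in the Consortium for Functional Glycomics database, kept only where the protein sequence was available.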

[2] = target: Neu5Ac(a2-6)Gal(b1-4)GlcNAc(b1-2)[Neu5Ac(a2-6)Gal(b1-4)GlcNAc(b1-4)]Man(a1-3)[GlcNAc(b1-4)][Neu5Ac(a2-6)Gal(b1-4)GlcNAc(b1-2)[Neu5Ac(a2-6)Gal(b1-4)GlcNAc(b1-6)]Man(a1-6)]Man(b1-4)GlcNAc(b1-4)GlcNAc
How it was run: as §1

[3] = target: Neu5Ac(a2-6)Gal(b1-4)GlcNAc(b1-2)[Neu5Ac(a2-6)Gal(b1-4)GlcNAc(b1-4)]Man(a1-3)[GlcNAc(b1-4)][Neu5Ac(a2-6)Gal(b1-4)GlcNAc(b1-4)Man(a1-6)]Man(b1-4)GlcNAc(b1-4)GlcNAc
How it was run: as §1

[4] = target: Neu5Ac(a2-6)Gal(b1-4)GlcNAc(b1-2)[Neu5Ac(a2-6)Gal(b1-4)GlcNAc(b1-6)]Man(a1-6)[Neu5Ac(a2-6)Gal(b1-4)GlcNAc(b1-2)Man(a1-3)][GlcNAc(b1-4)]Man(b1-4)GlcNAc(b1-4)GlcNAc
How it was run: as §1

[5] = target: Neu5Ac(a2-6)Gal(b1-4)GlcNAc(b1-3)Gal(b1-3)GlcNAc
How it was run: as §1

[6] = target: Neu5Ac(a2-6)Gal(b1-4)GlcNAc(b1-3)Gal(b1-4)GlcNAc
How it was run: as §1

[7] = target: Neu5Ac(a2-6)Gal(b1-4)GlcNAc(b1-3)Gal(b1-4)GlcNAc(b1-2)Man(a1-3)[Neu5Ac(a2-6)Gal(b1-4)GlcNAc(b1-3)Gal(b1-4)GlcNAc(b1-2)Man(a1-6)]GalNAc
How it was run: as §1

[8] = target: Neu5Ac(a2-6)Gal(b1-4)GlcNAc(b1-3)Gal(b1-4)GlcNAc(b1-3)Gal(b1-4)GlcNAc
How it was run: as §1

[9] = target: Neu5Ac(a2-6)Gal(b1-4)GlcNAc(b1-3)Gal(b1-4)GlcNAc(b1-3)Gal(b1-4)GlcNAc(b1-2)Man(a1-3)[Neu5Ac(a2-6)Gal(b1-4)GlcNAc(b1-3)Gal(b1-4)GlcNAc(b1-3)Gal(b1-4)GlcNAc(b1-2)Man(a1-6)]GalNAc
How it was run: as §1

[10] = target: Neu5Ac(a2-6)Gal(b1-4)GlcNAc(b1-3)Gal(b1-4)GlcNAc(b1-3)GalNAc
How it was run: as §1

[11] = target: Neu5Ac(a2-6)Gal(b1-4)GlcNAc(b1-3)Gal(b1-4)GlcNAc(b1-3)[Neu5Ac(a2-6)Gal(b1-4)GlcNAc(b1-3)Gal(b1-4)GlcNAc(b1-6)]GalNAc
How it was run: as §1

[12] = target: Neu5Ac(a2-6)Gal(b1-4)GlcNAc(b1-3)Gal(b1-4)GlcNAc(b1-6)[Gal(b1-3)]GalNAc
How it was run: as §1

[13] = target: Neu5Ac(a2-6)Gal(b1-4)GlcNAc(b1-3)Gal(b1-4)[Fuc(a1-3)]GlcNAc(b1-3)Gal(b1-4)[Fuc(a1-3)]GlcNAc
How it was run: as §1

[14] = target: Neu5Ac(a2-6)Gal(b1-4)GlcNAc(b1-3)GalNAc
How it was run: as §1

[15] = target: Neu5Ac(a2-6)Gal(b1-4)GlcNAc(b1-3)[Neu5Ac(a2-6)Gal(b1-4)GlcNAc(b1-6)]GalNAc
How it was run: as §1

[16] = target: Neu5Ac(a2-6)Gal(b1-4)GlcNAc(b1-6)GalNAc
How it was run: as §1

[17] = target: Neu5Ac(a2-6)Gal(b1-4)GlcNAc(b1-6)[Gal(b1-3)GlcNAc(b1-3)]Gal(b1-4)Glc
How it was run: as §1

[18] = target: Neu5Ac(a2-6)Gal(b1-4)GlcNAc(b1-6)[Gal(b1-3)]GalNAc
How it was run: as §1

[19] = target: Neu5Ac(a2-6)Gal(b1-4)GlcNAc6S
How it was run: as §1

[20] = target: Neu5Ac(a2-6)GalNAc
How it was run: as §1

[21] = target: Neu5Ac(a2-6)GalNAc(b1-4)GlcNAc
How it was run: as §1

[22] = target: Neu5Ac(a2-6)GalNAc(b1-4)GlcNAc6S
How it was run: as §1

[23] = target: Neu5Ac(a2-6)GlcNAc(b1-4)GlcNAc
How it was run: as §1

B1: Awp3 (Candida glabrata), B4UN32 (protein)
chain: MISFVTLLAILGLLSISWADQTVRSVAGDQRVTDPVIVGDNSILDYYGGSNYDFSNNFEIGRGTLYIGKESYFSSFQSAPTDVPNSFHLLIKNTNNLQNNGQFIIENIKRHANQCSNSSIQVFPINFQNDGEFEIISGGVEGRCCLPTSVIAPQNFLNNGKFYYKVLTDTGSIYSGSCMQNVDIGASTTTTVNNNLWEFTGSINAQINGAVSGAAQINLDGSNMFVNANTFSGQVVNLINGGSFLQTSDPLSNIVVINGLGTSDTGVTSIAVKGKGKSFTYNPSSGIVKLTTVEGKTYAYQIGCGYNTKKFITNNDSGASYESADNFFVLTYSEPYSPQTCQLENSSIFSSNFISTSTSSSSSSSSASSLPSSMSSSLPSSLSSSLSSSLSSSMSSSMSSLFIIPPPYTTTRSSGSSIIDTEIVSFYSTTDSPGHTITGTTTTTLYGPHTHSSVSTPSSSSESSTTSNSSIESSSLPHTSVSSTPESSITPSSNTISSSPTSDFSSVQSSSIMESSSVVASSSVINSSSIVDSSSSSASSLPSSMSSSLSSSMSSSLPSSMSSSLSSSLSSSLSSSMSSSMSSLFIIPPPYTTTRSSGSSIIDTEIVSFYSTTDSPGHTITGTTTTTLYGPHTHSSVSTPSSSSESSTTSNSSIESSSLPHTSVSSTPESSITPSSNTISSSPTSDFSSVQSSSIMESSSVVASSSVINSSSIVDSSSSSASSLPSSMPSSLPSSMSSSLSSSMSSSLSSSLSSSLSSSMSSSMSSLFIIPPPYTTTRSSGSSIIDTEIVSFYSTTDSPGHTITGTTTTTLYGPHTHSSVSTPSSSSESSTTSNSSIESSSLPHTSVSSTPESSITPSSNTISSSPTSDFSSVQSSSIMESSSVVASSSATQSSSVINSSSIVDSSSSSASSLPSSMPSSLPSSLSSSLSSSLSSSMSSSMSSLFIIPPPYTTTRSSGSSIIDTEIVSFYSTTDSPGHTITGTTTTTLYESSIYSSSSSTIQESELSNTSRTTMTSNSSVSISSTSSRSSFSNTKSSTIVISQSASLPDSKTDIILSTSSNIGYSSRSLLSDLGTSISDSDIHHSVLHSTESYSSNESGTNPFTSIASLSNFIPESSSHTSTALGSENSVISSDILTTMSHPVATNSGDKPTTPKRSEQVSTTMTSSGPTPDTSSFDTDGMSAYSRPEFTTNSLEVNKSSTSQLGNNKQTFSNLQLESTRPHSENEVDNNTRLLQSIQQSSTYGTNNVNPLSPTGSISIPLTEDGQGDNNNWNSPATNDLCTQISFNLTATTITVTDRITITDSIHDISSEVITSYIYQTIVDQKTVTQTVDGKSLANKMSSIPKPSSRSLIQPQPPVAIELQEGAASTSRVSLVSLFISIILVLL
- glycan array binding signal (z-score) [1]: 0.591
- glycan array binding signal (z-score) [2]: 0.723
- glycan array binding signal (z-score) [3]: -1.24
- glycan array binding signal (z-score) [4]: -0.372
- glycan array binding signal (z-score) [5]: 1.1
- glycan array binding signal (z-score) [6]: -1.68
- glycan array binding signal (z-score) [7]: 3.08
- glycan array binding signal (z-score) [8]: 0.879
- glycan array binding signal (z-score) [9]: 1.39
- glycan array binding signal (z-score) [10]: -1.67
- glycan array binding signal (z-score) [11]: 0.384
- glycan array binding signal (z-score) [12]: 1.06
- glycan array binding signal (z-score) [13]: 1.75
- glycan array binding signal (z-score) [14]: 0.189
- glycan array binding signal (z-score) [15]: 0.684
- glycan array binding signal (z-score) [16]: 0.184
- glycan array binding signal (z-score) [17]: 1.02
- glycan array binding signal (z-score) [18]: 2.16
- glycan array binding signal (z-score) [19]: 1.29
- glycan array binding signal (z-score) [20]: -0.031
- glycan array binding signal (z-score) [21]: -0.39
- glycan array binding signal (z-score) [22]: 0.454
- glycan array binding signal (z-score) [23]: 2.86
